Reference: patent US20140228287A1, “1-[(3-CYANO-PYRIDIN-2-YL)METHYL]-3-METHYL-7-(2-BUTYN-1-YL)-8-[3-(R)-AMINO-PIPERIDIN-1-YL]-AXANTHINE FOR THE TREATMENT OF A METABOLIC DISORDER OF A PREDOMINANTLY CARNIVOROUS NON-HUMAN ANIMAL” (BOEHRINGER INGELHEIM VETMEDICA GMBH, priority 2010, published 2014)
Where a name gives a salt, the structure may show the parent alone. At least one read-out could not be matched to a standard name with certainty.

Sequences of proteins named here, by UniProt entry; tags and fusion partners are left off. Residues count along the entry.
UniProt Q9N2I7, 38-765 limits assumed: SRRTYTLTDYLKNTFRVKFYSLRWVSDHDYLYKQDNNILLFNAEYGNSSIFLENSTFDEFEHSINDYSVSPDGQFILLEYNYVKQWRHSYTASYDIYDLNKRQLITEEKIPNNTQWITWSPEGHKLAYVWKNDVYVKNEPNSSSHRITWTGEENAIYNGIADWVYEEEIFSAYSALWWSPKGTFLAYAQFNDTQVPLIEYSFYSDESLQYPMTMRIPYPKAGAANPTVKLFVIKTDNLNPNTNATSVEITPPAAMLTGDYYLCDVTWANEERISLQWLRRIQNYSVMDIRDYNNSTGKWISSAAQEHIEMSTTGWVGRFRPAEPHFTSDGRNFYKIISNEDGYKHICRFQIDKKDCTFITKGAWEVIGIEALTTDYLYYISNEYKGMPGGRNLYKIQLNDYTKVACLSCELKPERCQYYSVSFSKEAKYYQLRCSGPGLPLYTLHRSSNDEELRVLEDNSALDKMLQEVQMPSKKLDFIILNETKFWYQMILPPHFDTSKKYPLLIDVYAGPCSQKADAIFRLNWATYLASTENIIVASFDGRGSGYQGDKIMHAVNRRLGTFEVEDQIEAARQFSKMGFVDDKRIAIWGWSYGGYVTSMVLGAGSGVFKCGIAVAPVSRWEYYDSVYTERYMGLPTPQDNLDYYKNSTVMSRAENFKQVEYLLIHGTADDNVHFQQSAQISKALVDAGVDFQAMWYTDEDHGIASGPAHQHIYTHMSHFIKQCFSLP

Target: T1, DPP IV (Felis catus, UniProt Q9N2I7)
T1 construct: Blood samples for the determination of this compound and DPP IV activity were collected; from tissue; host or cells: plasma of domestic short hair / purpose-bred cats dosed orally
Test: Exploratory multiple dose PK/PD (1.0/3.0/9.0 mg/animal, 14 days) in cats: DPP IV activity
Assay type: in vivo, cat
Settings: once daily oral 14 days, 312.5 h, monohydrochloride
Procedure: The aim of this study was to investigate the PK/PD effects of 1-[(3-cyano-pyridin-2-yl)methyl]-3-methyl-7-(2-butyn-1-yl)-8-[3-(R)-amino-piperidin-1-yl]-xanthine in cats following repeated oral administration of 0, 1, 3 and 9 mg/animal over 14 days corresponding to a dose of 0, 0.25, 0.75 and 2.25 mg/kg body weight for a cat weighing 4 kg. (Dosages were based on the free base: 1 mg 1-[(3-cyano-pyridin-2-yl)methyl]-3-methyl-7-(2-butyn-1-yl)-8-[3-(R)-amino-piperidin-1-yl]-xanthine monohydrochloride corresponds to 0.923 mg 1-[(3-cyano-pyridin-2-yl)methyl]-3-methyl-7-(2-butyn-1-yl)-8-[3-(R)-amino-piperidin-1-yl]-xanthine free base).
For this purpose, twelve clinically healthy male adult domestic short hair cats with a body weight range of 3.5-4.8 kg were used. The animals were randomly allocated to 4 groups, 3 animals per group. All animals were treated once daily orally for 14 days (i.e. on days 0-13). The test article was administered via capsules at doses of 1 (group II), 3 (group III) or 9 (group IV) mg of the monohydrochloride compound per animal; group I received placebo serving as controls. Blood samples for PK and PD (DPP IV activity) investigations were drawn at 0 h (i.e. prior to the 1st treatment), 0.5, 1, 2, 4, 8, 12 and 24 h after the 1st treatment as well as 24 h after the 3rd, 5th, 7th, 9th, 11th and 13th treatment and 0.5, 1, 2, 4, 8, 12 and 24 h after the 14th treatment.

CC#CCn1c(N2CCC[C@@H](N)C2)nc2c1c(=O)n(Cc1ncccc1C#N)c(=O)n2C [1-[(3-cyano-pyridin-2-yl)methyl]-3-methyl-7-(2-butyn-1-yl)-8-[3-(R)-amino-piperidin-1-yl]-xanthine monohydrochloride]
DPP IV activity in cat plasma (head 1 mg/animal (title 1.0 mg/animal)): 13.7%
DPP IV activity in cat plasma (head 3 mg/animal (title 3.0 mg/animal)): 8.7%
